Source: publication PMC8313700

Protein sequences, listed by entry. Tags and fused reporters are not part of them.
UniProt P06748: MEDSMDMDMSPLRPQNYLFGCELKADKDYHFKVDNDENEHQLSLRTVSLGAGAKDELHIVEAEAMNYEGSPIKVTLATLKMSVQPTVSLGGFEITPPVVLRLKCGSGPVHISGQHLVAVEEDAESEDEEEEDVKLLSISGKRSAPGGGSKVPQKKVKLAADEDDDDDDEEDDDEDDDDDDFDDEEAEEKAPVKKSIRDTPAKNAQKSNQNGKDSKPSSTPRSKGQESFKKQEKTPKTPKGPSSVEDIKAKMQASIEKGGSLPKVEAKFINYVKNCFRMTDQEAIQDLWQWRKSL

What was measured:
[1] = target: T1, ΔHO-1, truncated heme oxygenase-1 without transmembrane segment (aa1-266), with a Flag tag (UniProt P09601); assay: affinity purification with mass spectrometry; nuclear proteins of HUVECs transfected with ΔHO-1 or treated with Hemin; HO-1 antibody overnight at 4 °C, protein A/G beads 4 h at 4 °C, washes with 150-500 mM NaCl
T1 sequence: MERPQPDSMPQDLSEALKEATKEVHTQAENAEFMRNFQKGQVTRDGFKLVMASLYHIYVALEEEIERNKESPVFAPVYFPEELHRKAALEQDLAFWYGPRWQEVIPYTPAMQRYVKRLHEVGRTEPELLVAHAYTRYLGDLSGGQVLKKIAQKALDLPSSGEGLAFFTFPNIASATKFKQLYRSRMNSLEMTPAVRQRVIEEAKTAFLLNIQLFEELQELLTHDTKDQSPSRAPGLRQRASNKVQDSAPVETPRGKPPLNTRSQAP

[2] = target: T2, Heme oxygenase-1 (HO-1), endogenous, induced by Hemin in HUVECs (human (endogenous in HUVECs)) (UniProt P09601); assay: as above
T2 sequence: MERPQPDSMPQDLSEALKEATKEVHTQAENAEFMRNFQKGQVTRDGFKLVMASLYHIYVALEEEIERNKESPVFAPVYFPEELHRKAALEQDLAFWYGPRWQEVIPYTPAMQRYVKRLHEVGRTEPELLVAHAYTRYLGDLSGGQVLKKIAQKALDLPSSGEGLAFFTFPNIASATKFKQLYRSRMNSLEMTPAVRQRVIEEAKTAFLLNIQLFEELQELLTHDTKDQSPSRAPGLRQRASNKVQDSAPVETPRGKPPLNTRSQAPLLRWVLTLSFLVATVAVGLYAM

Nucleophosmin (NPM1), endogenous in HUVECs (from UniProt P06748 1-294)
binding [1]: binds
binding [2]: binds

No constants are given. Whether binding was seen depends on the method and setting. In cells and extracts the contact can be indirect. These calls come from enrichment with a bait or labelling near it, and not all partners need be listed. For some assays here: Sequences can lack the tags named with a protein.
